For 50 compounds, cell number change and AC50 results are on record in PubChem BioAssay AID2685 (National Center for Advancing Translational Sciences (NCATS), 2010).

The other results are listed elsewhere or left out. Shown are side measurements of this screen, not its main read-out; they come without a call. Most of these compounds were active or inconclusive in the main read-out, so they are no random draw. The note in brackets gives the kind of curve behind each potency; many fits are weak.

In general, AC50 refers to the midpoint of the concentration-response curve, whichever way the signal moves.

This experiment in a line: qHTS Assay for Lipid Storage Modulators in Drosophila S3 Cells.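 For cell number change: cells counted by Cell Tracker Red CMTPX staining in the red channel.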 The conditions noted are these: BODIPY lipid droplet fluorescence, 18-24 h; for cell number change: measured here: cell count max response, cells fed with added oleic acid. The method, boiled down:
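Laser-scanning cytometry quantifies lipid droplet accumulation (500–530 nm total intensity; droplet/cell object ratio) in oleic acid-fed (400 uM added) Drosophila S3 cells treated with a concentration series. 20 uM Triacsin C defined 100% inhibition.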
In general terms: In qHTS, concentration-response curves come from the screen itself.

Where [1] appears, read: measured here: lipid fluorescence (Fed channel) AC50, cells fed with added oleic acid.
Setting [2] is: measured here: cell number channel AC50, cells fed with added oleic acid.

On to `COc1ccc(N2CC(C(=O)Nc3c4c(nn3-c3ccccc3)CS(=O)(=O)C4)CC2=O)cc1` (stereo unspecified), for which the cell number change came out at 19.3%. The AC50 under setting [1] was 32.6 µM [rising, partial curve, poor fit].
Turning to `CC(C)Cc1cc(C(=O)NCc2cccnc2)no1`, the cell number change was found to be 1.41%.
In the case of `Cc1ccnc(SC2CC(=O)N(c3ccc(Cl)cc3)C2=O)n1` (stereo unspecified), the cell number change is 32.6%. The concentration at half-maximal activity (AC50) under setting [2] was 32.6 µM [rising, single point]. Moreover, under setting [1], the AC50 is 9.2 µM [falling, single point].
Turning to `CCn1c(=O)c(CCC(=O)NCCN2CCOCC2)c(C)c2c(C)nn(-c3ccccc3)c21`, the cell number change was determined as 22.7%.
As for `Cc1ccccc1Nc1sc(C(=O)Nc2cccc(Cl)c2)c(N)c1C(N)=O`, the cell number change is -49.9%. Further, the AC50 under setting [2] is 18.4 µM [falling, partial curve]. Moreover, the AC50 under setting [1] is 25.9 µM [falling, partial curve].
On to `CN(C)CCCNC(=O)/C(=C\c1ccc(-c2cccc([N+](=O)[O-])c2)o1)NC(=O)c1ccccc1`, for which the cell number change was determined as 2.58%. For the same compound, the AC50 under setting [1] is 0.82 µM [falling, single point].
Turning to `CCC(C)N(CCNC(=O)c1ccc(NC2=NC3CS(=O)(=O)CC3S2)cc1)Cc1ccco1` (stereo unspecified), the cell number change stood at 4.94%.
On to `Cc1cc(C(=O)NNC(=S)NC2CCCCC2)cs1`, for which the cell number change was determined as 24.9%. The AC50 under setting [2] was 0.00517 µM [rising, full curve, poor fit]. Under setting [1], the AC50 was 1.46 µM [rising, full curve, poor fit].
Regarding `COc1ccccc1CNC(=O)CCC(=O)N1CCOc2ccc(Cl)cc21`, the cell number change was -15.6%.
As to `COc1cccc(CC(=O)OCC(=O)NC2(C#N)CCCCC2)c1`, the cell number change came out at 4.06%. Moreover, the AC50 under setting [1] is 25.9 µM [falling, single point].
For `CCC(C)NC(=O)C1CCN(S(=O)(=O)c2cccc3nonc23)CC1` (stereo unspecified), the cell number change was -32.5%. Moreover, the AC50 under setting [2] is 0.13 µM [falling, full curve, poor fit].
With `COc1ccc(C)cc1Nc1n[n+](C)c(-c2ccc(O)cc2O)s1`, the cell number change was -7.49%.
As for `CCCCC(CC)C(=O)Nc1ccc(C#N)cc1` (stereo unspecified), the cell number change stood at 5.65%. Under setting [1], the AC50 is 20.6 µM [rising, single point].
With `CCCCc1ccc(NC(=S)NCCCN2CCOCC2)cc1`, the cell number change came to 88.9%. Besides, under setting [2], the AC50 is 29.1 µM [rising, single point]. In addition, under setting [1], the AC50 is 6.51 µM [falling, single point].
For the compound `CC1CC2=C(C(=O)O1)C(c1ccccc1)Nc1ccccc1N2` (stereo unspecified), the cell number change was -1.73%. For the same compound, the AC50 under setting [1] is 0.13 µM [falling, full curve, poor fit].
In the case of `CCCOc1ccc(N2C(=O)CC(NCCNc3ccc(S(=O)(=O)CC)cc3)C2=O)cc1` (stereo unspecified), the AC50 under setting [1] was 6.51 µM [falling, single point].
Turning to `COc1cc(/C=N\NC(=O)CC(=O)NCCc2ccccc2)ccc1O`, the cell number change is -7.13%. The AC50 under setting [1] was 20.6 µM [rising, single point].
With `O=C(NCCNC(=O)c1ccccc1F)c1ccco1`, the cell number change came to 21.1%. Besides, the AC50 under setting [2] was 4.61 µM [rising, single point]. Moreover, the AC50 under setting [1] was 5.62 µM [falling, single point].
As for `CCC(C)(C)c1ccc(OCCN2C(=O)NC(C)(C)C2=O)cc1`, the cell number change is 66.2%. Under setting [2], the AC50 is 29.1 µM [rising, single point].
For `COc1ccc(CNC(=O)C2CCCN(S(=O)(=O)c3c(C)noc3/C=C/N(C)C)C2)cc1` (stereo unspecified), the cell number change amounted to 5.66%.
`CCOC(=O)C1=C(c2ccccc2)O/C(=C(\C(=O)OC)C(F)(F)F)S1`: the cell number change worked out at 48.4%. Besides, the AC50 under setting [2] is 0.206 µM [rising, full curve, poor fit].
Take `COCCn1c(C)cc(C(=O)COc2nc3ccccc3nc2C)c1C`: the cell number change is -29.8%. Further, the AC50 under setting [1] was 1.84 µM [rising, single point].
Regarding `O=C(O)c1cccc2c1C(=O)c1ccccc1-2`, the cell number change was -44.3%. For the same compound, the AC50 under setting [2] was 0.92 µM [falling, full curve, poor fit]. Moreover, the AC50 under setting [1] was 1.03 µM [falling, full curve, poor fit].
On to `CNC(=O)COC(=O)COc1ccc2c(C)cc(=O)oc2c1`, for which the cell number change is -48.6%. In addition, the AC50 under setting [1] is 0.184 µM [falling, full curve, poor fit].
Regarding `CN(CC(=O)N1CCc2ccccc21)S(=O)(=O)c1cccc2cccnc12`, the cell number change was determined as 30%. Also, under setting [2], the AC50 is 9.2 µM [rising, single point]. For the same compound, under setting [1], the AC50 is 29.1 µM [rising, single point].
Regarding `COc1ccc(NC(=O)Cc2nnc(SCC(=O)Nc3nccs3)n2C)cc1`, the cell number change turned out to be 12.4%.
In the case of `O=C(NNC(=S)NC1CCCCC1)c1cccs1`, the cell number change was determined as 29%. Also, under setting [1], the AC50 was 16.4 µM [rising, partial curve, poor fit].
Consider `COCC(=O)NCc1nc2ccccc2[nH]1`, for which the cell number change is -5.4%. The AC50 under setting [2] was 1.84 µM [falling, partial curve, poor fit]. In addition, the AC50 under setting [1] was 1.3 µM [falling, partial curve].
Take `Cn1cccc1/C=N/N1CCN(c2ccccc2)CC1`: the cell number change was 23.6%.
On to `O=C(Cc1cccs1)N1CCN(c2cccc(Cl)c2)CC1`, for which the cell number change was -8.49%. Further, the AC50 under setting [1] was 0.231 µM [falling, full curve, poor fit].
For `O=C(NC(Cc1ccccc1)c1ccc2c(c1)OCCCO2)c1ccc(F)cc1` (stereo unspecified), the cell number change is 75.7%. Moreover, under setting [2], the AC50 was 29.1 µM [rising, single point].
As for `CCCCNC(=O)c1onc(CSc2cccc(OC)c2)c1C(=O)O`, the cell number change is -24.3%. In addition, the AC50 under setting [1] was 29.1 µM [falling, single point].
As to `O=C(Nc1ccc2c(c1)OCO2)c1cnn2c(C(F)(F)F)cc(-c3ccco3)nc12`, the cell number change is -3.97%. Also, under setting [1], the AC50 was 0.092 µM [rising, full curve, poor fit].
As for `Cc1cc(/C([O-])=C(/C(=S)Nc2ccc(F)cc2)[n+]2ccccc2)c(C)n1-c1ccc(F)cc1`, the cell number change is -27%. Also, the AC50 under setting [1] is 16.4 µM [falling, partial curve, poor fit].
With `COc1ccc(CNc2ccccc2SC)cc1OC`, the cell number change worked out at 12%. The AC50 under setting [1] was 0.058 µM [falling, full curve, poor fit].
Regarding `CCOC(=O)c1c(NC(=O)CSc2nnc(N)s2)sc(C)c1-c1ccc(C)cc1`, the cell number change was -25.1%. Under setting [1], the AC50 was 23.1 µM [falling, partial curve, poor fit].
In the case of `COc1ccc(/C=C(/NC(=O)c2ccccc2)C(=O)N2CCOCC2)cc1OC`, the cell number change was -5.26%.
As for `O=[N+]([O-])c1ccc(N/N=C/c2ccccc2)cc1`, the cell number change was -19.9%. Further, the AC50 under setting [1] was 32.6 µM [falling, single point].
As to `COc1ccc(Cl)cc1CSc1ncn[nH]1`, the cell number change amounted to 19.1%. Besides, the AC50 under setting [1] is 2.59 µM [rising, partial curve, poor fit].
For the compound `Cc1cc(C)cc(N(CC(=O)NCC2CCCO2)C(=O)CCC(=O)Nc2nccs2)c1` (stereo unspecified), the cell number change was -14.1%.
For `CCOC(=O)C1CCN(S(=O)(=O)Cc2ccccc2)C1=O` (stereo unspecified), the cell number change stood at 6.8%. The AC50 under setting [1] was 1.64 µM [falling, full curve].
As to `Nn1c(Cc2cccc3ccccc23)nnc1SCc1c(F)cccc1Cl`, the cell number change came out at 31.9%. Besides, the AC50 under setting [2] was 2.06 µM [rising, partial curve].
Turning to `CS(=O)(=O)N1CCC(C(=O)NCc2ccc(Cl)cc2Cl)CC1`, the cell number change worked out at 25.5%. Also, the AC50 under setting [2] is 4.11 µM [rising, full curve, poor fit].
Consider `COc1ccccc1NC(=O)Nc1cccnc1`, for which the cell number change was 5.37%. For the same compound, the AC50 under setting [1] is 0.13 µM [falling, full curve, poor fit].
As to `CC(=O)c1ccc(Nc2ccc([N+](=O)[O-])c3nonc23)cc1`, the cell number change was -1.47%. In addition, the AC50 under setting [1] is 29.1 µM [falling, single point].
For `CCOC(=O)C1CN(S(=O)(=O)c2cccs2)c2ccc(CC(=O)OC)cc2O1` (stereo unspecified), the cell number change was -32.9%. For the same compound, the half-maximal activity concentration (AC50) under setting [2] is 1.26 µM [falling, full curve, poor fit]. The AC50 under setting [1] is 1.58 µM [falling, full curve, poor fit].
`COc1ccccc1OC(C)C(=O)N1CC(=O)Nc2ccccc21` (stereo unspecified): the cell number change came out at 22.2%.
Consider `Cc1ccc(S(=O)(=O)O/N=C2/CCCc3occc32)cc1`, for which the cell number change was 4.74%. Further, the AC50 under setting [2] is 0.103 µM [rising, full curve, poor fit].
Regarding `CN1CCN(C(=S)SCC(=O)N2CCCc3ccccc32)CC1`, the AC50 under setting [1] is 16.4 µM [rising, partial curve].
`CC(=O)O/N=C(/c1nonc1N)N(C)C`: the cell number change is -41.9%. For the same compound, the AC50 under setting [2] was 29.1 µM [falling, single point].
